Measurements as given in the supplement of paper PMC3334620.
Whole data set: some 33,000 sequences, median “E-score (-0.5 to 0.5)” near -0.015, cut for the highest 2% near 0.3. The list shows a part of the results.

target: T1, Abf1 (UniProt P14164); test: PBM E-score (8-mer binding enrichment) (E-score (-0.5 to 0.5)); higher = stronger / more preferred TF binding; details: protein concentration: 200 nM; construct: GST-full length
T1 sequence: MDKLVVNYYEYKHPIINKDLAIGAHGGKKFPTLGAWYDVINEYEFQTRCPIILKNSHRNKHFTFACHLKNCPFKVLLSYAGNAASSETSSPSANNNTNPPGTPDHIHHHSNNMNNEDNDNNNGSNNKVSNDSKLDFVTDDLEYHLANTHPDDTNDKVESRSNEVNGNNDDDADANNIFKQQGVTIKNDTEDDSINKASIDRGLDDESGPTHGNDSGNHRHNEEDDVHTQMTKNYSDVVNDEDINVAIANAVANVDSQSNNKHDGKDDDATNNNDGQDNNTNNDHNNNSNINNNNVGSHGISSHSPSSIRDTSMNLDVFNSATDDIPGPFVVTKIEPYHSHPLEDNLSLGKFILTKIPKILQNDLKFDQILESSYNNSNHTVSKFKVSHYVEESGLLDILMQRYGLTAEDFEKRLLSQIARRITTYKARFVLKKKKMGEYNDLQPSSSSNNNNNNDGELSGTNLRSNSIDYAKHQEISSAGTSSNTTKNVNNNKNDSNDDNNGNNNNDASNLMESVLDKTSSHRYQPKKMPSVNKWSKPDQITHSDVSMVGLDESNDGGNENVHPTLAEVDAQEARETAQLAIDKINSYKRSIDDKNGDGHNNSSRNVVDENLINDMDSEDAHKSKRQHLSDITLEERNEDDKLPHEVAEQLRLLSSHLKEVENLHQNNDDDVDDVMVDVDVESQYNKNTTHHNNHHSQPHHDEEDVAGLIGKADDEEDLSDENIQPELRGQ
Outline: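 Universal all-10-mer Agilent arrays, fresh or stripped once, were converted to double-stranded form by primer extension. GST-tagged yeast transcription factors from PURExpress in vitro transcription/translation, full-length or DNA-binding domain only, were applied at about 100-200 nM and detected with fluorescent anti-GST. After masliner normalisation, the Universal PBM Analysis Suite scored each ungapped eight-base word together with its reverse complement by E-score.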

| Sequence | PBM E-score |
| --- | --- |
| CCGGCATA | 0.0154 |
| CTGAGTAC | -0.265 |
| GCTCGGCA | -0.0163 |
| CAACAACG | 0.158 |
| CCTTTAGA | -0.115 |
| CCGATAGA | -0.047 |
| ACGGTATC | 0.182 |
| ATCGTGAA | 0.165 |
| CAGTAAAA | 0.0609 |
| CTAATGAC | 0.0613 |
| CCAGAAAA | 0.00653 |
| CCGTGGTA | 0.072 |
| AACGGCCC | -0.137 |
| CATCATAA | 0.136 |
| CGCAATGA | 0.105 |
| ATCAGTAA | 0.134 |
| GGTCGACC | 0.12 |
| CTTCTTCA | -0.00012 |
| GCAATAGC | -0.202 |
| GCAAAATA | 0.101 |
| CATGCCCG | 0.0779 |
| ATGCGTCG | 0.147 |
| TAAGAATA | 0.0017 |
| AATGATAT | 0.436 |
| GTGCCTAA | -0.0654 |

| Sequence | PBM E-score |
| --- | --- |
| GACGGCTA | 0.0813 |
| AGGGACAT | 0.0319 |
| ACAGAGTG | 0.0326 |
| AGAATAAA | 0.0955 |
| AGCGACCG | 0.0741 |
| CAACAGGG | -0.245 |
| AACGGCGG | 0.176 |
| CCGTACGG | 0.29 |
| AAAGTATA | 0.101 |
| ACAGTGGG | -0.169 |
| ATAACGAA | 0.268 |
| CTTGTTCA | -0.0789 |
| CAAGCACA | -0.164 |
| AATAATTG | 0.169 |
| CAAGGTTA | 0.0302 |
| ACCTCCGC | 0.0265 |
| CAGACCAA | -0.132 |
| TGCCAGCA | -0.0616 |
| GTCGTGAA | 0.279 |
| GCGGTACC | -0.116 |
| GAGATCAC | 0.347 |
| AGAAGTAC | -0.192 |
| AAAGTAAT | 0.0732 |
| TGCGCAAA | 0.0302 |
| AACACACA | 0.0634 |

A different layout for some results above:
Sequence,PBM E-score
AGAATAAA,0.0955
AAAGTAAT,0.0732

(further entries)

| Sequence | PBM E-score |
| --- | --- |
| GAATTAGC | 0.0828 |
| TCACAGCA | 0.0235 |
| GAAGTCCC | -0.296 |
| GACGGGAA | 0.098 |
| GAACCCAC | 0.0639 |
| TGTACCAA | 0.0776 |
| ACCGGCCG | -0.0185 |
| AGATTTCG | 0.0655 |
| CATTTCTA | 0.173 |
| AGAGTTGA | 0.0576 |
| ATGATACG | 0.305 |
| CTCTGGCC | -0.281 |
| GTGACCAA | 0.229 |
| CTTTATCC | -0.0621 |
| GTAACGTA | 0.139 |
| ATTGGCTA | 0.0308 |
| AATTCTAG | 0.0424 |
| CTCGGCAA | -0.0896 |
| CAAGCAAC | 0.137 |
| ACCGAAGA | -0.0637 |
| AGGATACC | 0.0364 |
| AGGCACTA | -0.0974 |
| ATACGTCC | 0.12 |
| AGCTAGCG | -0.0762 |
| AATCAATT | 0.0887 |

| Sequence | PBM E-score |
| --- | --- |
| CCTATAAG | -0.23 |
| AGGTGGAA | 0.0882 |
| ACAAGTCG | -0.21 |
| ACAGATCC | -0.092 |
| AAACACGT | -0.178 |
| AGTTTAGA | -0.0102 |
| CTGAGCAC | -0.0119 |
| AGTCCTGC | -0.207 |
| CCCCCTGC | -0.344 |
| AACTATCT | -0.0536 |
| GTAATCAA | 0.229 |
| CTATTCGC | -0.0685 |
| GAGGTACA | -0.0744 |
| GCAGACGC | -0.063 |
| AAGGGGTC | -0.276 |
| GCCTCCCC | -0.344 |
| CTCGTCGA | 0.165 |
| AACTGAAT | -0.0812 |
| AGGGTGAG | -0.102 |
| CAACTTGG | -0.0126 |
| CGACATTC | 0.0424 |
| AGAGTACT | -0.22 |
| ATATCCTC | 0.133 |
| AGGGTGAC | 0.166 |
| GACCTTAA | 0.00054 |

| Sequence | PBM E-score |
| --- | --- |
| CTATATCC | -0.0211 |
| CTCGTGCC | -0.0761 |
| AGGCAATG | -0.0496 |
| CCCTGGCG | -0.243 |
| CGGCAAGC | 0.0221 |
| ATTCATAA | 0.111 |
| CCGCACAG | -0.0965 |
| ACAAGCCA | -0.0334 |
| CAGTATCG | 0.14 |
| ATAAACTC | -0.0308 |
| ACCTATTA | 0.0712 |
| CCATGACA | 0.0894 |
| CTGCTGGA | -0.0122 |
| CTCCATTA | -0.244 |
| ACCACAAA | 0.0999 |
| CCTTAGAC | -0.0549 |
| AATATAAT | 0.119 |
| CCGACGAC | 0.261 |
| AAGGTGAT | 0.264 |
| CGTGCCAG | 0.148 |
| AGGCAGCA | -0.0225 |
| GTTGCCGA | -0.0651 |
| AAGCGTCG | 0.0106 |
| CCCTCCAG | -0.378 |
| AACCTCGC | -0.0854 |

Quoted at random: 6 records from the list

| Sequence | PBM E-score |
| --- | --- |
| AGAGTACT | -0.22 |
| CAACTTGG | -0.0126 |
| AACGGCCC | -0.137 |
| GTAATCAA | 0.229 |
| AACCTCGC | -0.0854 |
| CCAGAAAA | 0.00653 |

A different layout for some results above.
ACGGTATC
  PBM E-score: 0.182
AGGTGGAA
  PBM E-score: 0.0882
AGGGTGAC
  PBM E-score: 0.166
AGGCAATG
  PBM E-score: -0.0496

Additional results:

| Sequence | PBM E-score |
| --- | --- |
| GACCGAGA | -0.119 |
| ATCGTCCC | 0.143 |
| AGCCTACT | -0.182 |
| CCTACGCA | -0.0242 |
| GCCATCAA | -0.165 |
| CGTCTTCC | 0.027 |
| TAACTTGA | 0.0918 |
| ACTTCTGG | -0.069 |
| ATCTGAAC | -0.027 |
| CAGCATTC | -0.0995 |
| AGTCGCTC | -0.106 |
| CCCTAAGC | -0.148 |
| CGTGCGCA | 0.141 |
| CAGGGTGA | 0.0383 |
| CAAGTCTG | -0.173 |
| CCAACATA | 0.138 |
| CATGACAC | 0.218 |
| CGATGCTA | 0.0972 |
| CGTCTACA | 0.0401 |
| AACGGATG | -0.181 |
| TGGCCGAA | -0.13 |
| GTTCGGTA | -0.0503 |
| CTCTCATA | 0.0213 |
| GCCTGCAC | -0.184 |
| ACGCGGGA | -0.167 |

| Sequence | PBM E-score |
| --- | --- |
| ACCAAATA | 0.167 |
| CGCCACGA | 0.16 |
| ACTTTGTG | 0.13 |
| GTTACATA | 0.0313 |
| CCGTAGCG | 0.132 |
| ATCATCAC | 0.393 |
| CTGGGGAA | -0.228 |
| TAATTGTA | -0.0372 |
| AGAACCTC | -0.134 |
| CAGGTAGC | -0.0477 |
| CCTCATCC | -0.212 |
| ACACCGTA | 0.0493 |
| ACTTCGCA | 0.0373 |
| TCAAGTGA | 0.208 |
| CTACGGGC | -0.177 |
| AAGCATTA | 0.0928 |
| AATATTGA | 0.142 |
| CAATGCGC | 0.1 |
| TGGGAAAA | 0.0159 |
| TCTCAGAA | 0.102 |
| GACGTGCA | 0.358 |
| CCCTACCC | -0.183 |
